Reference: PMC11897192
Results are given in words; binding and its absence hold for the method and conditions named. In cells and extracts the contact can be indirect. These calls come from enrichment with a bait or labelling near it, and not all partners need be listed. For some assays here: A no says only that the protein was not detected with the bait. Tags and fused reporters may be left off the sequences shown.

Key:
TurboID-Flag-ZBTB20 [1] = biological target: T1, TurboID-Flag-ZBTB20 (UniProt Q8K0L9); assay: proximity labelling; chondrocytes transduced with Ad-TurboID-Fg-Zbtb20 (control Ad-TurboID-GFP), 50 μmol/L biotin 15 min 37°C, RIPA lysate, streptavidin magnetic beads, western blot of LATS1; without IL-1β
T1 sequence: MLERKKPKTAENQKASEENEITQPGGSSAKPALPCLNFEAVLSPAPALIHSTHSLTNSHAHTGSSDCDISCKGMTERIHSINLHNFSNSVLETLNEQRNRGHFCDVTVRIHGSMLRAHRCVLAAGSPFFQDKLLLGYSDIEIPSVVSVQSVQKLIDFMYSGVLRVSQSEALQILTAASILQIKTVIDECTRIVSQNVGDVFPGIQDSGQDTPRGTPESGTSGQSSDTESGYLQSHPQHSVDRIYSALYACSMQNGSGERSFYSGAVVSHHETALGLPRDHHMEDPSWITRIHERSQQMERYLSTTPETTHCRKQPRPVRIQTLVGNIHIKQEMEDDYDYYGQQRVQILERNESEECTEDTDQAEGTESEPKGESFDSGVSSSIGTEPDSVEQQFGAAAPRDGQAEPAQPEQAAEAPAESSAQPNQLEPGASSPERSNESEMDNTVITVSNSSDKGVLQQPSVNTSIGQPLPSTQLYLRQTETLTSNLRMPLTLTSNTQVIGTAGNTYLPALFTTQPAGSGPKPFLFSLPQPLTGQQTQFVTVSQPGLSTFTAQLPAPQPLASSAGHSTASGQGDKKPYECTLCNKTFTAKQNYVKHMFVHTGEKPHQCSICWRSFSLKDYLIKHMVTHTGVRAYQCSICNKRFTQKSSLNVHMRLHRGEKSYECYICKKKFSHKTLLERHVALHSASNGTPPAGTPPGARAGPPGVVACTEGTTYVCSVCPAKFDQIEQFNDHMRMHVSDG

TurboID-Flag-ZBTB20 [2] = biological target: T1, TurboID-Flag-ZBTB20; assay: proximity labelling; as above, chondrocytes treated with IL-1β

B1: LATS1 (protein, UniProt Q8BYR2 1-1129)
chain: MKRGEKPEGYRQMRPKTFPASNYPGSSRQMLQEIRESLRNLSKPSDASKAEHNLNKMSTEDPRQVRNPPKFGTHHKALQEIRNSLLPFANETSSSRSPSEVNPQMFQDLQAAGFDEDMVIQALQKTNNRSIEAAVEFISKMSYQDPRREQMSAAAARPINATMKPGNVQHSINRKQSWKGSKESLVPQRHGPSLGENVVYRSESPNSQADVGRPLSGSGIAAFAQAHPSNGQRVNPPPPPQVRSVTPPPPPRGQTPPPRGTTPPPPSWEPSSQTKRYSGNMEYVISRISPVPPGAWQEGYPPPPLTTSPMNPPSQAQRAISSVPVGRQPIIMQSTSKFNFTPGRPGVQNGGGQSDFIVHQNVPTGSVTRQPPPPYPLTPANGQSPSALQTGASAAPPSFANGNVPQSMMVPNRNSHNMELYNINVPGLQTAWPQSSSAPAQSSPSGGHEIPTWQPNIPVRSNSFNNPLGSRASHSANSQPSATTVTAITPAPIQQPVKSMRVLKPELQTALAPTHPSWMPQPVQTVQPTPFSEGTASSVPVIPPVAEAPSYQGPPPPYPKHLLHQNPSVPPYESVSKPCKDEQPSLPKEDDSEKSADSGDSGDKEKKQITTSPITVRKNKKDEERRESRIQSYSPQAFKFFMEQHVENVLKSHQQRLHRKKQLENEMMRVGLSQDAQDQMRKMLCQKESNYIRLKRAKMDKSMFVKIKTLGIGAFGEVCLARKVDTKALYATKTLRKKDVLLRNQVAHVKAERDILAEADNEWVVRLYYSFQDKDNLYFVMDYIPGGDMMSLLIRMGIFPENLARFYIAELTCAVESVHKMGFIHRDIKPDNILIDRDGHIKLTDFGLCTGFRWTHDSKYYQSGDHPRQDSMDFSNEWGDPSNCRCGDRLKPLERRAARQHQRCLAHSLVGTPNYIAPEVLLRTGYTQLCDWWSVGVILFEMLVGQPPFLAQTPLETQMKVINWQTSLHIPPQAKLSPEASDLIIKLCRGPEDRLGKNGADEIKAHPFFKTIDFSSDLRQQSASYIPKITHPTDTSNFDPVDPDKLWSDGSEEENISDTLNGWYKNGKHPEHAFYEFTFRRFFDDNGYPYNYPKPIEYEYIHSQGSEQQSDEDDQHTSSDGNNRDLVYV
binding (TurboID-Flag-ZBTB20 [1]): binds | binding (TurboID-Flag-ZBTB20 [2]): no binding (only cells treated with IL-1β)
